Our source for the binding values is publication doi:10.1101/415455.

In assay [1] the target is T1, GST-MSL2[573-708] (Drosophila) (UniProt P50534).
T1 sequence: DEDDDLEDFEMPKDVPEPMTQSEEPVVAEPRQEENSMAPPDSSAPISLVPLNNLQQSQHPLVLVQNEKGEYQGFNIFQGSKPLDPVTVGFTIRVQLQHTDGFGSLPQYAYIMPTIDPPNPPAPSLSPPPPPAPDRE
Put plainly: pull-down.

Assay [2] has as its target T2, GST-CLAMP[1-196] (Drosophila) (UniProt Q9V9N4).
T2 sequence: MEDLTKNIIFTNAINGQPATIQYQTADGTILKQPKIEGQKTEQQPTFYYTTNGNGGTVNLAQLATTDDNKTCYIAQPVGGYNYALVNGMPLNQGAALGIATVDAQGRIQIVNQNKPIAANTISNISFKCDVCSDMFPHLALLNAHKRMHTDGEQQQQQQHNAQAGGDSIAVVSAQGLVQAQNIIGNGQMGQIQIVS
As to the kind of experiment: pull-down.

In assay [3] the target is T3, Thioredoxin-6xHis-CLAMP[1-196] (Drosophila) (UniProt Q9V9N4).
T3 sequence: T2 sequence
Put plainly: pull-down.

In another assay the target is T4, 3xHA-CLAMP (Drosophila) (UniProt Q9V9N4).
T4 sequence: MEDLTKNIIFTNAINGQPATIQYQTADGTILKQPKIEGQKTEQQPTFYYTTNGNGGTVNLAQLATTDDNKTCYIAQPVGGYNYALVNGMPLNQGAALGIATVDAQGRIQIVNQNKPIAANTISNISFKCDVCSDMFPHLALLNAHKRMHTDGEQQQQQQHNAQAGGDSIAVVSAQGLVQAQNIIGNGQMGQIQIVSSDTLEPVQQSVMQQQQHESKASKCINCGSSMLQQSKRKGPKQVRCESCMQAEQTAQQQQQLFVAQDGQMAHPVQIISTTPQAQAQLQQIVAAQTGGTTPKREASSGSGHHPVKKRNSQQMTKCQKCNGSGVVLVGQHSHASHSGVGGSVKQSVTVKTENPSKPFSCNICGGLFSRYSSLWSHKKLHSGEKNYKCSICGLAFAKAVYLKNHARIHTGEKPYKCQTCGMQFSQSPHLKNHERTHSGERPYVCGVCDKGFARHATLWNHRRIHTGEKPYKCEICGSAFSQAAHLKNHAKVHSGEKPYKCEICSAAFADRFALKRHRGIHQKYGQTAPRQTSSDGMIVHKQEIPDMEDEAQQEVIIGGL
Put plainly: co-IP.

For assay [4], the target named is T5, MSL2 (yeast two-hybrid fusion) (Drosophila) (UniProt P50534).
T5 sequence: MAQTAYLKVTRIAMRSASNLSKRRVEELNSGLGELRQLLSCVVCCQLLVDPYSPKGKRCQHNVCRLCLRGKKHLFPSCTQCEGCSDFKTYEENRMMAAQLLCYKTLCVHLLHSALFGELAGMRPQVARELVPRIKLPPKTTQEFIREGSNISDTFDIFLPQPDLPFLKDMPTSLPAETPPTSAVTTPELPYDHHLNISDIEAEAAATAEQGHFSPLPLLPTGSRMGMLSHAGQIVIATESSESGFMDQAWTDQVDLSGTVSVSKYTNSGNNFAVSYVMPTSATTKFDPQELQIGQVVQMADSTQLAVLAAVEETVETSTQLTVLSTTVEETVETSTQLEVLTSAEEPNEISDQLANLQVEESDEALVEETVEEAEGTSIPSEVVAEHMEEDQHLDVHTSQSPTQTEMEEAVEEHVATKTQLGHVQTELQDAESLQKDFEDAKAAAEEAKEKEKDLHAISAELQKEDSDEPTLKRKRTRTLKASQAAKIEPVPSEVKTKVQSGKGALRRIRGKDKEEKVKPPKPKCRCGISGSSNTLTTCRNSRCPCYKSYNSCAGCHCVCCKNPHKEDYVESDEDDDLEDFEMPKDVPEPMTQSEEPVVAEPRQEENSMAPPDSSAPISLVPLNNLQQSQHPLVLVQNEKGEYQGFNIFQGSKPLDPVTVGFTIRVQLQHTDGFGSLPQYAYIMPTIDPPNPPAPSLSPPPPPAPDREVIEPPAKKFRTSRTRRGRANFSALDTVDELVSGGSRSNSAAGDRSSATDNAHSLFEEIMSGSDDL
As to the kind of experiment: two-hybrid.

For assay [5], the target named is T6, Thioredoxin-6xHis-MSL2[573-708] (Drosophila) (UniProt P50534).
T6 sequence: T1 sequence
Put plainly: pull-down.

Results are given in words; binding and its absence hold for the method and conditions named. For some assays here: Binding seen in cells or lysates may run through a third protein. Some results given as binding are weak or reduced against the parent protein; the word gives no strength. Tags and fused reporters may be left off the sequences shown.

B1: Thioredoxin-6xHis-tagged CLAMP region 86-153 (domain or fragment, UniProt Q9V9N4 86-153)
chain: VNGMPLNQGAALGIATVDAQGRIQIVNQNKPIAANTISNISFKCDVCSDMFPHLALLNAHKRMHTDGE
On to B1, for which the binding result in assay [1] is reported as “binds”.

B2: Thioredoxin-6xHis-MSL2[573-708] (domain or fragment, UniProt P50534 573-708)
chain: T1 sequence
For the molecule B2, the binding entry in assay [2] is “binds”.

B3: GST-MSL2[573-708] (domain or fragment, UniProt P50534 573-708)
chain: T1 sequence
In the case of B3, the binding entry in assay [3] is on record as “binds”.

B4: 3xFLAG-tagged MSL2^Δ13dΔB (protein, UniProt P50534)
chain: MAQTAYLKVTRIAMRSASNLSKRRVEELNSGLGELRQLLSCVVCCQLLVDPYSPKGKRCQHNVCRLCLRGKKHLFPSCTQCEGCSDFKTYEENRMMAAQLLCYKTLCVHLLHSALFGELAGMRPQVARELVPRIKLPPKTTQEFIREGSNISDTFDIFLPQPDLPFLKDMPTSLPAETPPTSAVTTPELPYDHHLNISDIEAEAAATAEQGHFSPLPLLPTGSRMGMLSHAGQIVIATESSESGFMDQAWTDQVDLSGTVSVSKYTNSGNNFAVSYVMPTSATTKFDPQELQIGQVVQMADSTQLAVLAAVEETVETSTQLTVLSTTVEETVETSTQLEVLTSAEEPNEISDQLANLQVEESDEALVEETVEEAEGTSIPSEVVAEHMEEDQHLDVHTSQSPTQTEMEEAVEEHVATKTQLGHVQTELQDAESLQKDFEDAKAAAEEAKEKEKDLHAISAELQKEDSDEPTLKRKRTRTLKASQAAKIEPVPSEVKTKVQSGKGALRRIRGKDKEEKVKPPKPKCRCGISGSSNTLTTCRNSRCPCYKSYNSCAGCHCVCCKNPHKEDYVESDEDDDLEDFEMPKDVPEPMTQSEEPVVAEPRQEENSMAPPDSSAPISLVPLNNLQQSQHPLVLVQNEKGLDPVTVGFTIRVQLQHTDGFGSLPQYAYIMPTIDPPNPPAPSLSPPPPPAPDREVIEPPANFSALDTVDELVSGGSRSNSAAGDRSSATDNAHSLFEEIMSGSDDL
In the case of B4, in the assay with 3xHA-CLAMP (Drosophila), the binding result was “no binding”.

B5: CLAMP (yeast two-hybrid fusion) (protein, UniProt Q9V9N4 1-561)
chain: T4 sequence
On to B5, for which the binding entry in assay [4] is “binds”.

B6: Thioredoxin-6xHis-CLAMP[1-196] (domain or fragment, UniProt Q9V9N4 1-196)
chain: T2 sequence
With B6, in assay [1], the binding entry was “binds”.

B7: GST-CLAMP[1-196] (domain or fragment, UniProt Q9V9N4 1-196)
chain: T2 sequence
B7: the binding entry in assay [5] is “binds”.

B8: 3xFLAG-tagged MSL2^ΔB (protein, UniProt P50534)
chain: MAQTAYLKVTRIAMRSASNLSKRRVEELNSGLGELRQLLSCVVCCQLLVDPYSPKGKRCQHNVCRLCLRGKKHLFPSCTQCEGCSDFKTYEENRMMAAQLLCYKTLCVHLLHSALFGELAGMRPQVARELVPRIKLPPKTTQEFIREGSNISDTFDIFLPQPDLPFLKDMPTSLPAETPPTSAVTTPELPYDHHLNISDIEAEAAATAEQGHFSPLPLLPTGSRMGMLSHAGQIVIATESSESGFMDQAWTDQVDLSGTVSVSKYTNSGNNFAVSYVMPTSATTKFDPQELQIGQVVQMADSTQLAVLAAVEETVETSTQLTVLSTTVEETVETSTQLEVLTSAEEPNEISDQLANLQVEESDEALVEETVEEAEGTSIPSEVVAEHMEEDQHLDVHTSQSPTQTEMEEAVEEHVATKTQLGHVQTELQDAESLQKDFEDAKAAAEEAKEKEKDLHAISAELQKEDSDEPTLKRKRTRTLKASQAAKIEPVPSEVKTKVQSGKGALRRIRGKDKEEKVKPPKPKCRCGISGSSNTLTTCRNSRCPCYKSYNSCAGCHCVCCKNPHKEDYVESDEDDDLEDFEMPKDVPEPMTQSEEPVVAEPRQEENSMAPPDSSAPISLVPLNNLQQSQHPLVLVQNEKGEYQGFNIFQGSKPLDPVTVGFTIRVQLQHTDGFGSLPQYAYIMPTIDPPNPPAPSLSPPPPPAPDREVIEPPANFSALDTVDELVSGGSRSNSAAGDRSSATDNAHSLFEEIMSGSDDL
With B8, the binding result in the assay with 3xHA-CLAMP (Drosophila) was “binds”.
